# Primary screen of a compound library

Protein sequences, listed by entry. Tags and fused reporters are not part of them.
UniProt E9BF75, entry or part of it: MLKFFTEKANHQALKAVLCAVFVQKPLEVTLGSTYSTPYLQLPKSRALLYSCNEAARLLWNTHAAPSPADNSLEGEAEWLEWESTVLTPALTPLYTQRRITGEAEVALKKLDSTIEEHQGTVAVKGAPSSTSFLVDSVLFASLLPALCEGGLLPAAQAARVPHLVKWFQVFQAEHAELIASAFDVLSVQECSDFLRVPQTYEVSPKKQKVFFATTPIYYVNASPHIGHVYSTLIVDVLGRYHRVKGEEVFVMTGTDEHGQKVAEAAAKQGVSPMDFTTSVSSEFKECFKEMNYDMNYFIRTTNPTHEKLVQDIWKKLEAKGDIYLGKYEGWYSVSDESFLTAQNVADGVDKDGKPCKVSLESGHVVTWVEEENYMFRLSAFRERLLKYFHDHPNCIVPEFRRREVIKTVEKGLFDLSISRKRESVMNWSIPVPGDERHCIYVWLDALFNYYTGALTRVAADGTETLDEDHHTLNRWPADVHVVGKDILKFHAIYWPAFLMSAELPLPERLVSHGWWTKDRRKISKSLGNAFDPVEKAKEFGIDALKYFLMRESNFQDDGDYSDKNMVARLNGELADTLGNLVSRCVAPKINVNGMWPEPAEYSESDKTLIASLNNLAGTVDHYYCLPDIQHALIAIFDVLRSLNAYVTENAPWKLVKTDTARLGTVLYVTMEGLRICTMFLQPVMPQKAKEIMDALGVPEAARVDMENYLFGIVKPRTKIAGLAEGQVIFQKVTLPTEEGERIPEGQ

A: 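Assay on Mycobacterium tuberculosis, filed only as a heat shock assay from Cornell; the read-out is not stated. The concentration is filed as 10 mM, unlikely as a test dose, so the dose is not known. The record gives no direction; compounds that gave an IC50 in retests scored well above the rest, so higher reads as stronger inhibition. About 69,000 compounds were tested under these conditions; 1.4% (about 930) showed 50% or more at least once.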
B: 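Primary screen of methionyl-tRNA synthetase; the read-out is not stated. Target: Methionyl-tRNA synthetase (putative), Leishmania donovani (UniProt E9BF75). The test concentration is not given. The values are filed as inhibition. Of about 68,000 compounds tested this way, about 24 (0.035%) reached 50% or more in at least one test.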
C: 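Whole-cell assay for inhibitors of Mycobacterium tuberculosis growth, labelled Cornell in the record; the read-out is not stated. The concentration is filed as 10 mM, unlikely as a test dose, so the dose is not known. The record gives no direction; compounds strong in two other growth screens of this library score well above the rest, so higher reads as stronger inhibition. Of about 53,000 compounds tested this way, about 900 (1.7%) reached 50% or more in at least one test.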

All values are in %.
How 0% and 100% were set is not recorded. Most values in the screen are low, and negative values occur.
The compounds are a random part of those screened.
A dash means the value is not listed here; it may have been measured.

compound | A | B | C
COc1ccc(CNC[C@H]2Cn3ccnc3CO2)cn1 | -24.72 | 11.86 | 21.73
CN1CCN(c2ccc3ccc(C(=O)N4CCCO4)cn23)CC1.O=C(O)C(F)(F)F | 0.4231 | - | -4.527
Cl.Cl.Cl.c1cnc(NCc2cncc3c2CCN(Cc2cccnc2)C3)nc1 | -17.57 | - | 2.234
CN1CCCc2sc(C(=O)NCc3cccnc3)nc21 | 7.111 | 1.504 | 0.05923
CC1CCN(CC(=O)N(Cc2ccccc2)Cc2nccs2)C1=O (configuration not stated) | 3.836 | 9.138 | -
CCC(Nc1nccc(C2CCCC2)n1)c1ccncc1 (configuration not stated) | 1.22 | 6.529 | 29.64
CC(C)NC(=O)[C@H]1CN(Cc2ccccc2)C[C@@H]1C(=O)c1ccccc1 | -6.439 | 16.86 | 38.41
Cc1cc(F)cc(S(=O)(=O)Nc2noc(C)n2)c1 | -10.61 | 6.211 | -
Cc1ccc(OCC(=O)NC2CCN(S(C)(=O)=O)CC2)cc1 | 2.574 | 18.58 | -
COc1ccc2c(ccn2CC(=O)Nc2n[nH]c(CC(C)C)n2)c1 | 3.209 | 18.59 | 36.05
CC(=O)Nc1ccc(S(=O)(=O)N2CCOC(Cn3ccnc3)C2)cc1 (configuration not stated) | -5.496 | 18.1 | 25.97
COCCC(=O)N(CCC#N)c1ccc(C)c(C)c1 | 2.145 | 14.8 | -27.29
CCc1nnc(CN(C)Cc2cccc(C(=O)Nc3ccnn3C)c2)o1 | 2.892 | 9.946 | 5.502
CCC1CN(CC(=O)NCc2ccco2)CCO1 (configuration not stated) | -30.27 | 1.76 | 8.241
CCn1nc(C)c2nc(C(C)C)nc(N3CCOCC3)c21 | -0.6371 | 2.73 | -41.44
CSc1ccc(C2SCC(=O)Nc3c2c(=O)[nH]n3C2CCOCC2)cc1 (configuration not stated) | 4.598 | 13.64 | 22.64
Cc1ccc(C(=O)NCc2cccnc2-n2cncn2)cc1S(C)(=O)=O | -28.21 | 3.736 | -31.11
NC(=O)C1CCN(C(=O)CCn2ccc3cc(Br)ccc32)CC1 | -6.148 | 8.85 | -2.579
Cc1ccc(N2CCC3(CC2)CCN(C2CCOCC2)CC3)nn1.O=C(O)C(F)(F)F | -18.73 | - | 31.27
CN(C)C(=O)Cc1ccc(-c2cccc3c2CCNC3)cc1 | -6.626 | 14.92 | 19.48
CO[C@@H]1CCN(Cc2ccoc2)[C@H]1Cc1ccccc1.O=C(O)C(F)(F)F | 14.91 | - | 25.62
Cc1cc(NCc2csc(C)n2)no1 | -6.889 | 0.2688 | -
CCOc1ncccc1C(=O)N1CCCC(n2nc(C)nc2C)C1 (configuration not stated) | 30.37 | 12.03 | 3.529
Fc1cccc(F)c1Cn1c(C2CCCNC2)cc2cccnc21 (configuration not stated) | - | 15.31 | -
COc1ccc(C(=O)N2CC[C@@H](N3CCC(O)CC3)[C@H](O)C2)cc1C | 4.188 | 8.014 | 0.9416
NC(=O)C1(CCCc2ccccn2)CCCN(Cc2ncc[nH]2)C1 (configuration not stated) | -9.801 | 16.95 | -6.495
NC(=O)CCn1ccc(NC(=O)C2(c3ccc(F)cc3)CCC2)n1 | 1.646 | 7.692 | 16.1
Cl.Cl.O=C1NC2(CCNCC2)CC1c1ccncc1 (configuration not stated) | 2.67 | - | -12.16
CCN1CCOC(CNCc2ccccc2OCc2ccncc2)C1 (configuration not stated) | 6.582 | 6.032 | -
Cc1nc(C)n(CC2CCCN(Cc3nnc(-c4ccco4)o3)C2)n1 (configuration not stated) | 6.136 | 13.38 | 1.503
Cc1ccc(CN(CCN(C)C)Cc2ccnn2C2CCCCO2)o1.O=C(O)CC(O)(CC(=O)O)C(=O)O (configuration not stated) | -19.93 | - | 6.622
CCc1n[nH]c(C2CN(C(=O)c3cnc(C)cn3)CCO2)n1 (configuration not stated) | 1.954 | 6.25 | -
Cc1ccccc1C1(O)CCN(C(=O)CCc2cn3ccccc3n2)C1 (configuration not stated) | -11.06 | 0.6944 | 6.583
Cc1nc(CN2C[C@@H](CN3CCOCC3)[C@@H](CO)C2)c2ccccn12 | 1.211 | 17.01 | 4.009
COCc1nc(CNC2CSCCSC2)no1 | 8.485 | 8.242 | -
CN1Cc2c(C(=O)N3CCOCC3)ncn2-c2ccccc2S1(=O)=O | -12.35 | 15.68 | -27.86
CC(CNC(=O)CCCc1ccccn1)c1ccsc1 (configuration not stated) | -19.41 | 11.34 | -
CC(C)(C)c1cnc(CN2CCCC2Cn2cccn2)o1 (configuration not stated) | 7.837 | 0.4695 | 17.48
Cc1cccc(-c2c[nH]c(C3CCCN3)n2)c1.Cl.Cl (configuration not stated) | -10.91 | - | 9.189
COCC1CC2(CCN(Cc3cnn(C)c3)CC2)CN1C(C)C (configuration not stated) | - | 5.579 | -
Cc1cc(C(=O)N2CCCC(n3nc(C)cc3C)C2)on1 (configuration not stated) | 16.26 | 12.03 | -29.25
CS(=O)(=O)N1CCOCC2(CN(Cc3ccc(F)cc3)CCO2)C1 (configuration not stated) | - | 10.53 | -
CCSCCOC(=O)CCCc1ccc2c(c1)CC(=O)N2 | -16.83 | 11.23 | -
CC(=O)N1CCCN(C(=O)c2cnn(-c3ccccc3Cl)c2)CC1 | -21.04 | 15.38 | -28.49
Cc1cc(C)c2[nH]c(CN3CCCC(N4CCOCC4)C3)cc(=O)c2c1 (configuration not stated) | 12.79 | 13.19 | -
Cc1cccc(CN2CCC3(CCCN(Cc4cnn(C)c4)C3)C2=O)n1 (configuration not stated) | -19.77 | 9.041 | 16.86
CCOCC1CCN(C(=O)Nc2ccc(-c3csnn3)cc2)C1 (configuration not stated) | 1.909 | 14.97 | 38.14
CC(C1CC1)N(C)Cc1nnc(-c2ccco2)o1 (configuration not stated) | 23.49 | 11.8 | -
O=C(CCNC(=O)c1cccc(OC(F)F)c1)Nc1cccnc1 | -23.76 | 10.82 | -

The first 5 entries again:

Result for COc1ccc(CNC[C@H]2Cn3ccnc3CO2)cn1 was A: -24.72%; B: 11.86%; C: 21.73%.
Result for CN1CCN(c2ccc3ccc(C(=O)N4CCCO4)cn23)CC1.O=C(O)C(F)(F)F was A: 0.4231%; C: -4.527%.
Result for Cl.Cl.Cl.c1cnc(NCc2cncc3c2CCN(Cc2cccnc2)C3)nc1 was A: -17.57%; C: 2.234%.
Result for CN1CCCc2sc(C(=O)NCc3cccnc3)nc21 was A: 7.111%; B: 1.504%; C: 0.05923%.
Result for CC1CCN(CC(=O)N(Cc2ccccc2)Cc2nccs2)C1=O (configuration not stated) was A: 3.836%; B: 9.138%.

From ChEMBL document CHEMBL3988442, “University of Dundee, Small-Polar-MMV Screening Library” (2021).